From the supplement of paper PMC11732987, “Enantioselective OTUD7B fragment discovery through chemoproteomics screening and high-throughput optimisation” (Communications Chemistry, 2025) come the findings set out here.

The chains behind the UniProt entries cited, without tags or fusion partners. Where a name states a change or a piece, a line headed by the entry shows the natural chain unless it says otherwise. Residues count along the entry.
UniProt Q86XL3: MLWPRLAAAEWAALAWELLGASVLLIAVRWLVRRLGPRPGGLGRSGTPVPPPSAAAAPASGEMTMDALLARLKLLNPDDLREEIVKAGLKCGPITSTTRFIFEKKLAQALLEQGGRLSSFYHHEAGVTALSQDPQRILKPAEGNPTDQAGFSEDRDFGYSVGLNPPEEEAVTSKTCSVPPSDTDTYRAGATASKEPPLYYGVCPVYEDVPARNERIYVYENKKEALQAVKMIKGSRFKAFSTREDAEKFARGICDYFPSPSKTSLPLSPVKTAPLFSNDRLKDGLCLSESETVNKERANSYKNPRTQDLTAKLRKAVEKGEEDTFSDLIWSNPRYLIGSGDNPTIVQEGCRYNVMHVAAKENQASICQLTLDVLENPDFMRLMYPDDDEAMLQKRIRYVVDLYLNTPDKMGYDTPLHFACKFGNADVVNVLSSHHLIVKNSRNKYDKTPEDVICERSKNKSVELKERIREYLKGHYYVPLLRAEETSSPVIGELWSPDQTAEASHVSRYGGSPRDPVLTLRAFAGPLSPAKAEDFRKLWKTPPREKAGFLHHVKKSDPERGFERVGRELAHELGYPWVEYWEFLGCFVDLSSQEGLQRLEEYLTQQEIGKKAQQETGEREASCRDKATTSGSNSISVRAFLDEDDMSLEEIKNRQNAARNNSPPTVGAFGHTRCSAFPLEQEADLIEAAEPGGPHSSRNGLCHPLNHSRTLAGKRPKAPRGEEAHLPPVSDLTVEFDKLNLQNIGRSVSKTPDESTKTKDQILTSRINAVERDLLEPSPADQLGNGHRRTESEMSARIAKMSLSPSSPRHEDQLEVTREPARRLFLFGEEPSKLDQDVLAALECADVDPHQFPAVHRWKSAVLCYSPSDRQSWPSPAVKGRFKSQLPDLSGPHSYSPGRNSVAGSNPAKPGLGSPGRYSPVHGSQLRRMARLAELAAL
UniProt P10398: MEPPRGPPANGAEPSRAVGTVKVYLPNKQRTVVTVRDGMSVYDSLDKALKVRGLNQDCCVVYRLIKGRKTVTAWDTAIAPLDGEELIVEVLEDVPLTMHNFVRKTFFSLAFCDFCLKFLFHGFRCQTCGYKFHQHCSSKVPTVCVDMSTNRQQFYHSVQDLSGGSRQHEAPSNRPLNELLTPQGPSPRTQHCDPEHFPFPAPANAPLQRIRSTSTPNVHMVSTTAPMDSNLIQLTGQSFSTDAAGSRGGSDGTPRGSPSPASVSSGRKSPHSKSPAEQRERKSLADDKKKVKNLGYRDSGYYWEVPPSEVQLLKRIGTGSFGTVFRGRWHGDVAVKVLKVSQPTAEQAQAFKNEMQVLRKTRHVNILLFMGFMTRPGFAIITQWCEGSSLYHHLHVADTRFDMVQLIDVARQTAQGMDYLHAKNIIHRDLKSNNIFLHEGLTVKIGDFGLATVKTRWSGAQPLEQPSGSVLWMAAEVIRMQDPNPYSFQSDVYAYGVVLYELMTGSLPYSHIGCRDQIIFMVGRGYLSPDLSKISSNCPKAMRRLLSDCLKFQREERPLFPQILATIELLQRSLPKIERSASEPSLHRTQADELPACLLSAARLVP
UniProt Q9H2C2, 14-33: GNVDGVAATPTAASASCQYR
UniProt Q9UBL3, whole entry, looked up: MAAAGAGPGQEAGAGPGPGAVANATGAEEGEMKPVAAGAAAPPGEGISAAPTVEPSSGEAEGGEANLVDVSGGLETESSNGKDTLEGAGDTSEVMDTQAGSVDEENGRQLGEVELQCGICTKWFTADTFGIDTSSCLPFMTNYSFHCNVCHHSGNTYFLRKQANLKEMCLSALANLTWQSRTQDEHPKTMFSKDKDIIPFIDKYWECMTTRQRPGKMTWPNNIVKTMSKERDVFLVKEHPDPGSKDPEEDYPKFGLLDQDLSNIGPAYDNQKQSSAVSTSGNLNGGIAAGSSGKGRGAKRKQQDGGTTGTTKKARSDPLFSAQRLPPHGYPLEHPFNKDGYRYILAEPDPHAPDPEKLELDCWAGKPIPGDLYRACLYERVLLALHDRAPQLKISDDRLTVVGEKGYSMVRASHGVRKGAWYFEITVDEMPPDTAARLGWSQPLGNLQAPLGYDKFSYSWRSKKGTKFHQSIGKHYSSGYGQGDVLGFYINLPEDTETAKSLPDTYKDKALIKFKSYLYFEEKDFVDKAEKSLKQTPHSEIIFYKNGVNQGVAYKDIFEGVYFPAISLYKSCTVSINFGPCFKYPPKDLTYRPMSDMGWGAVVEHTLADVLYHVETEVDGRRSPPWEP
UniProt P53677: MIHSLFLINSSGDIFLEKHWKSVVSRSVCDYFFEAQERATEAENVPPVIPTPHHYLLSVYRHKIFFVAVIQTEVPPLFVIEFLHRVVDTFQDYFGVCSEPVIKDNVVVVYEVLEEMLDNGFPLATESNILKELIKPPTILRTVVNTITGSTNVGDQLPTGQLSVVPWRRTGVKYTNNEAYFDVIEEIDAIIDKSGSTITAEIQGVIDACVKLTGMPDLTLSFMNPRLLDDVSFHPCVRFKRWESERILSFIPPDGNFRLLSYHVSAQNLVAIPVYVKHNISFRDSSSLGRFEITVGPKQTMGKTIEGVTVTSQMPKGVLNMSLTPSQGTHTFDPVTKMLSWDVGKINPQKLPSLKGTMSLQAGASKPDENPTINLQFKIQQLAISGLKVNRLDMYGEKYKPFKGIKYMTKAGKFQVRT
UniProt O95376: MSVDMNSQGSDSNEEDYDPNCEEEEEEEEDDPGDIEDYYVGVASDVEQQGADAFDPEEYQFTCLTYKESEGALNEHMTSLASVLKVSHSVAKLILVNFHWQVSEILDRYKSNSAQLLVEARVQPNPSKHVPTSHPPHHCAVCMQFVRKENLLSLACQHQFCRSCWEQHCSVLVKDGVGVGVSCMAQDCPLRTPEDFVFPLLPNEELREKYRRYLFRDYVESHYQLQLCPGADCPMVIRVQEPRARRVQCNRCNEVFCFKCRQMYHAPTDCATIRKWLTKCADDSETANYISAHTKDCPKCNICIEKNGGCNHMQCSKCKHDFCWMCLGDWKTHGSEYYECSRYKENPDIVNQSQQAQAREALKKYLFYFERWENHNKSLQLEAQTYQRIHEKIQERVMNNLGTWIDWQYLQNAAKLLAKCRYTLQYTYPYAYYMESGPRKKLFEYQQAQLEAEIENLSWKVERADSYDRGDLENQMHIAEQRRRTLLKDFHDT
UniProt P20073: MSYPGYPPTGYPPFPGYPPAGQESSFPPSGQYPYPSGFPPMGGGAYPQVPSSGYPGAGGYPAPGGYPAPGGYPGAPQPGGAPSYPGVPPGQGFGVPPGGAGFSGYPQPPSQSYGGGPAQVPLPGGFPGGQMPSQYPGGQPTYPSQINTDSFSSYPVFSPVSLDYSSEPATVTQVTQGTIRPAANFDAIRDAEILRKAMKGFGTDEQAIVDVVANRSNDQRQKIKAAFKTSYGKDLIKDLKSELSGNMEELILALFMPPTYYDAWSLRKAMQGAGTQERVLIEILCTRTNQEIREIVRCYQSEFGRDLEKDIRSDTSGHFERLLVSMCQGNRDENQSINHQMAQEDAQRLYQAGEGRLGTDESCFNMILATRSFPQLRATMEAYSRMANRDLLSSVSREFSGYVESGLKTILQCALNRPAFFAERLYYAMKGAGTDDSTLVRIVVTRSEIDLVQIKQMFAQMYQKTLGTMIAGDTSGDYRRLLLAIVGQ
UniProt Q92747, whole entry, looked up: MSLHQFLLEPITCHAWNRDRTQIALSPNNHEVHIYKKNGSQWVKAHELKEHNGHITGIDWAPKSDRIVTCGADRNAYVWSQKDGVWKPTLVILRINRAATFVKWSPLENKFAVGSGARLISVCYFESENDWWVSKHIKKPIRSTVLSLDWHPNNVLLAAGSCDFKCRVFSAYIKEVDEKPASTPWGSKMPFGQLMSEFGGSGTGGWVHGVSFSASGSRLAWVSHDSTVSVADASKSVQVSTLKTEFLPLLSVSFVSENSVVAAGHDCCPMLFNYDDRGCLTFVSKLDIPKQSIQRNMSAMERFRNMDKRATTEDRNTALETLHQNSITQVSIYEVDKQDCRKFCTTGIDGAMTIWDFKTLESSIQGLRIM
UniProt Q68EM7, 301-325: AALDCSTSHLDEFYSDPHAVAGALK
UniProt Q9UBZ4: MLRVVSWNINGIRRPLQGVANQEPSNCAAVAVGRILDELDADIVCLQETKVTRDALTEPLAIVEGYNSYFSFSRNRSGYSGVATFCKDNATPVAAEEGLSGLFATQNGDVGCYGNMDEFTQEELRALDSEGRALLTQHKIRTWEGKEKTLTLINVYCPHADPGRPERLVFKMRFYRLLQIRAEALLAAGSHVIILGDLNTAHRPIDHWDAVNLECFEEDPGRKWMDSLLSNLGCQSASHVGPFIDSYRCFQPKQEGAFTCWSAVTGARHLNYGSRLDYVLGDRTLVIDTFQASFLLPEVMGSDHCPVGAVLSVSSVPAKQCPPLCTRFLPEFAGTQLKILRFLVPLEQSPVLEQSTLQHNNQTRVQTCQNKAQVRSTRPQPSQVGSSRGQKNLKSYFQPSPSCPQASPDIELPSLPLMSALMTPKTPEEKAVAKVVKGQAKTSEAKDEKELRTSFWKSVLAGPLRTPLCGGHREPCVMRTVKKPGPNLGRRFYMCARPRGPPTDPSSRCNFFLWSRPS
UniProt Q9Y6D6: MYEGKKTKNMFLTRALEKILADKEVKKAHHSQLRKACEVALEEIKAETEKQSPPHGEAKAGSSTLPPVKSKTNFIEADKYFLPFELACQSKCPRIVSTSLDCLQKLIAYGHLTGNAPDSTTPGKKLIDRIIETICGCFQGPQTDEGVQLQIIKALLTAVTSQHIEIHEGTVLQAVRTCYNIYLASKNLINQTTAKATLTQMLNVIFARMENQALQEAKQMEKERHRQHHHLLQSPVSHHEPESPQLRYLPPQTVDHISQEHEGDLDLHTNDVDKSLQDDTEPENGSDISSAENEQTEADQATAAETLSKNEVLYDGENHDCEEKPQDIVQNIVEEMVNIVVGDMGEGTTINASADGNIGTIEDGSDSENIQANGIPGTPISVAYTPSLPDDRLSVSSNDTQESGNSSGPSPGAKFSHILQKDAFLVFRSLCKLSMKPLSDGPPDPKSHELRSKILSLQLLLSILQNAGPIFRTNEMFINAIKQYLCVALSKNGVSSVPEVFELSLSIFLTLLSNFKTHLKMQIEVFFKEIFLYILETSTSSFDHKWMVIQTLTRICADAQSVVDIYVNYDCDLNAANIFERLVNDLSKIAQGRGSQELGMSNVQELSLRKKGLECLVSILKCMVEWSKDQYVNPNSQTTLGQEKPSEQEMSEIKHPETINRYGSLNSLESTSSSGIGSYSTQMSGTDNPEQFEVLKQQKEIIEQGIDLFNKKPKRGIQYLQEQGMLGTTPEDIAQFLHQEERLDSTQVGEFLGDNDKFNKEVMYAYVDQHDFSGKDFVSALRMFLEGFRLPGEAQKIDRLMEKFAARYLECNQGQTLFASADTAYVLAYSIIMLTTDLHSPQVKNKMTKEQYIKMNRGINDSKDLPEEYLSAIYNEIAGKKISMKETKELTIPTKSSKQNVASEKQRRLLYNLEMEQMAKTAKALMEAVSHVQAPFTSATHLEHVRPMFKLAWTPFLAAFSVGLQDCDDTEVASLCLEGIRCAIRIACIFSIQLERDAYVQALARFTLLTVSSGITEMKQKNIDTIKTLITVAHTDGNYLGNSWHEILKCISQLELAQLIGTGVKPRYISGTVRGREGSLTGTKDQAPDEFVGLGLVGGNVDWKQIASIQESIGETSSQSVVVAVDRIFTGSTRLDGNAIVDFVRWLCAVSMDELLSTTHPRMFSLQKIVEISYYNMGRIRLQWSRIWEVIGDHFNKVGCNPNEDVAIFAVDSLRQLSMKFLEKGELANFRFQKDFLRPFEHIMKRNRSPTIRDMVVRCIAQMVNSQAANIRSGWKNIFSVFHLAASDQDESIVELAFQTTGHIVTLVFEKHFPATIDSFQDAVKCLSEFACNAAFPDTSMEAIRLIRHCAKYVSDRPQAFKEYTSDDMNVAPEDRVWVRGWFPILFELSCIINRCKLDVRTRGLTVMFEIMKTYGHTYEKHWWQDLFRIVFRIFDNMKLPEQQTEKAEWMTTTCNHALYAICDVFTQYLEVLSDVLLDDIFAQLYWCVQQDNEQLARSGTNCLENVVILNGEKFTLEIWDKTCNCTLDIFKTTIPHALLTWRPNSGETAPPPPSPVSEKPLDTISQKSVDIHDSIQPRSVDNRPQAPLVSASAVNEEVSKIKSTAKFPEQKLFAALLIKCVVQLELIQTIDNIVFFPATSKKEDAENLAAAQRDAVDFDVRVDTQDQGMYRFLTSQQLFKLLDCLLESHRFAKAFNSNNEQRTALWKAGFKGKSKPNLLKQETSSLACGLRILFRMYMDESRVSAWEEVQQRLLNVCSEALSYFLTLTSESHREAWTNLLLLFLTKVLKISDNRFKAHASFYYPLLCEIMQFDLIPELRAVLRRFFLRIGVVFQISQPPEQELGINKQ

The list shows a part of the results. The data scatter; read single values as rough.

Compound in one assay: ClCC(=O)N[C@H]1CCCc2ccccc12
Kind of assay: log2 mean competition ratio of IA-DTB cysteine labelling (DMSO/compound) (log2 ratio); higher = stronger cysteine engagement by compound. The note with it: 50 µM; treatment time: 4 h; cell line lysate: HEK293T. How it is done: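 IA-DTB competitive cysteine chemoproteomics in HEK293T RIPA lysate. Lysates were treated with compound 29 or 30 at 50 or 200 µM for 4 h, then IA-DTB (500 µM, 1 h), trypsin-digested, NeutrAvidin-enriched and analysed by diaPASEF. Competition ratio = intensity DMSO / intensity compound (n=4 treated, n=64 DMSO); binding: mean log2 CR ≥ 1 and p ≤ 0.05 plus QC filters. Target is the cysteine site.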
As for ANKLE2 C286 (UniProt Q86XL3), the “log2 mean competition ratio” value was -0.249.
Consider ARAF C144 (UniProt P10398), for which the “log2 mean competition ratio” value was -0.289.
Regarding ARV1 C30 (UniProt Q9H2C2), the “log2 mean competition ratio” value is 0.799.
As to ASH2L C207 (UniProt Q9UBL3), the “log2 mean competition ratio” value was -0.364.
With AP2A2 C491 (UniProt O94973), the “log2 mean competition ratio” value is -0.0715.
For the target AP3M2 C29 (UniProt P53677), the “log2 mean competition ratio” value was determined as 0.286.
As for ARIH2 C340 (UniProt O95376), the “log2 mean competition ratio” value is -0.288.
Same read-out and setting: the result for ARIH2 C280 (UniProt O95376) reads -0.472; that for ARIH2 C270 (UniProt O95376), -0.175; that for ARPIN C183 (UniProt Q7Z6K5), -0.0467.
Regarding ARHGAP42 C24, the “log2 mean competition ratio” value was -0.626.
The same measure, in the same setting: the result for ARFGEF2 C90 (UniProt Q9Y6D5) reads 0.184.
Regarding ANXA7 C298 (UniProt P20073), the “log2 mean competition ratio” value came to 0.178.
Same read-out and setting: the result for ANKRD17 C210 (UniProt O75179) reads -0.291.
For ARPC1A C279 (UniProt Q92747), the “log2 mean competition ratio” value was 0.491.
Regarding ARHGAP17 C305 (UniProt Q68EM7), the “log2 mean competition ratio” value was -0.309.
On to ARHGEF12 C1325 (UniProt Q9NZN5), for which the “log2 mean competition ratio” value is 0.0175.
As to APEX2 C368 (UniProt Q9UBZ4), the “log2 mean competition ratio” value amounted to 0.0457.
Consider ARFGEF1 C1200 (UniProt Q9Y6D6), for which the “log2 mean competition ratio” value was found to be 0.0693.
Same read-out and setting: the result for ARID1A C1827 (UniProt O14497) reads -0.228.

Staying with this assay, now noted: 200 µM; treatment time: 4 h; cell line lysate: HEK293T.
As for ANKLE2 C286 (UniProt Q86XL3), the “log2 mean competition ratio” value was determined as 0.0401.
The same measure, in the same setting: the result for ARAF C144 (UniProt P10398) reads -0.0993.
As to ARV1 C30 (UniProt Q9H2C2), the “log2 mean competition ratio” value was -0.0076.
With ASH2L C207 (UniProt Q9UBL3), the “log2 mean competition ratio” value was -0.313.
AP2A2 C491 (UniProt O94973): the “log2 mean competition ratio” value was -0.157.
For the target AP3M2 C29 (UniProt P53677), the “log2 mean competition ratio” value worked out at 0.0785.
As to ARIH2 C340 (UniProt O95376), the “log2 mean competition ratio” value came out at 0.0644.
With ARIH2 C280 (UniProt O95376), the “log2 mean competition ratio” value was -0.112.
As for ARIH2 C270 (UniProt O95376), the “log2 mean competition ratio” value was determined as 0.0647.
For the target ARPIN C183 (UniProt Q7Z6K5), the “log2 mean competition ratio” value was 0.221.
Regarding ARHGAP42 C24, the “log2 mean competition ratio” value is -0.214.
As for ARFGEF2 C90 (UniProt Q9Y6D5), the “log2 mean competition ratio” value was 0.123.
Take ANXA7 C298 (UniProt P20073): the “log2 mean competition ratio” value is -0.072.
As for ANKRD17 C210 (UniProt O75179), the “log2 mean competition ratio” value is 0.25.
As for ARPC1A C279 (UniProt Q92747), the “log2 mean competition ratio” value is -0.261.
ARHGAP17 C305 (UniProt Q68EM7): the “log2 mean competition ratio” value was -0.156.
On to ARHGEF12 C1325 (UniProt Q9NZN5), for which the “log2 mean competition ratio” value is -0.118.
For APEX2 C368 (UniProt Q9UBZ4), the “log2 mean competition ratio” value is 0.154.
For the target ARFGEF1 C1200 (UniProt Q9Y6D6), the “log2 mean competition ratio” value stood at 0.0112.
As to ARID1A C1827 (UniProt O14497), the “log2 mean competition ratio” value was found to be 0.165.
